Measurements as given in patent US20110269211.
Numbering of substitutions follows the chain as printed. For at least one entry, the source does not settle the construct or the ends of the probe. Tags and fusion partners may be left off the protein sequences shown.

Columns and labels:
Experiment in all cases: activity assay
[1] = molecular target: T1, Kofu DNA polymerase (KOD/Pfu chimera) (UniProt P56689); conditions: M13 primer extension, 2.5 mM MgCl2, 50 C, SYBR Green; reference; heparin elution 37 mS/cm; purified recombinant protein
T1 sequence (limits assumed): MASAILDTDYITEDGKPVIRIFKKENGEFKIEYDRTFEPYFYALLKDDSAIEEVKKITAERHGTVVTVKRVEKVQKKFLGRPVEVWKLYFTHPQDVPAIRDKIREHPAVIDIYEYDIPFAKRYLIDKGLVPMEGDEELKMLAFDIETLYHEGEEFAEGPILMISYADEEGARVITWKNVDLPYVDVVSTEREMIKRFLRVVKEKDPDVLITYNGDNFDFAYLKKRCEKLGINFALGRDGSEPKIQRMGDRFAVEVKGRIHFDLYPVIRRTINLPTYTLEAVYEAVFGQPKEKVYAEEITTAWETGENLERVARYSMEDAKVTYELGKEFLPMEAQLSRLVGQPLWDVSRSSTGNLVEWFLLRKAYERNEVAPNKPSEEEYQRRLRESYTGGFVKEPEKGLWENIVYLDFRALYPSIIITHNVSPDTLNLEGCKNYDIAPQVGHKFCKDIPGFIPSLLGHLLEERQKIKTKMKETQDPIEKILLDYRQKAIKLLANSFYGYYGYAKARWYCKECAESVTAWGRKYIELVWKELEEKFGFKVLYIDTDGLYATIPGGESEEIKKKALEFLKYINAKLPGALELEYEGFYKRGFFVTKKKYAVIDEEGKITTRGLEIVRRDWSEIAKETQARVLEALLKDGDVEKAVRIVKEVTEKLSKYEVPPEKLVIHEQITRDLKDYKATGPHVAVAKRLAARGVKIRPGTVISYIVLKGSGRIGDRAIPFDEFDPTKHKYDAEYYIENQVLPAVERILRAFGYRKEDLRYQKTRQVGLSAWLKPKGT

[2] = tested on: T2, Kofu clone 11/5Hi-E3 R410H,F591L,E580G,K588R,K597R,A679V,R693Q,D725E (Artificial (KOD/Pfu chimera)); conditions: M13 primer extension, 2.5 mM MgCl2, 50 C; heparin elution 38 mS/cm; purified recombinant protein
T2 sequence (limits assumed): T1 sequence (limits assumed) with R410H, E580G, K588R, F591L, K597R, A679V, R693Q, D725E

[3] = tested on: T3, Kofu clone 11/5Hi-E5 F591L,F445I,K561E,K653R (Artificial (KOD/Pfu chimera)); conditions: M13 primer extension, 2.5 mM MgCl2, 50 C; heparin elution 40.8 mS/cm; purified recombinant protein
T3 sequence (limits assumed): T1 sequence (limits assumed) with F445I, K561E, F591L, K653R

“AACGCCAGGGTTTTCCCAGTCACGACGTTGTAAAACGACG” gave an activity on this sequence (relative to Kofu) [1] of 1, an activity on this sequence [2] of 3 fold vs Kofu and an activity on this sequence [3] of 4 fold vs Kofu.
